± gives the standard deviation. The entries are a selection whose mix differs from that of the whole data set. Many of these values have a large error.

The results in this text go back to the supplement of paper PMC10338343.

For the assay, the system named is MIWI (PIWIL1) piRISC loaded with piRNA #2 (30 nt). The assay is described as follows: pre-steady-state target cleavage rate (min^-1); MIWI and MILI are mouse PIWI proteins and EfPiwi is from a freshwater sponge; tags in brackets are library labels; higher = faster piRNA-guided slicing of the target. As to conditions: guide: piRNA #2 5'p-UUAGGUAACCCAGUAGAUCCAGAGGAAUUC; auxiliary factor: 500 nM mouse GTSF1. In outline: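 Cleave-'n-Seq: a transcribed, DNA-blocked target RNA library (0.1 nM) was mixed with 1 nM active affinity-purified piRISC carrying one synthetic guide, with or without 500 nM GTSF1 partner protein, in HEPES–potassium acetate buffer at 33 °C for 0–8 or 0–960 min. Uncleaved targets were sequenced and normalised to depth and to weakly complementary targets. Three trials were pooled, and k3 was capped at 0.0001 min^-1. The pre-steady-state cleavage rate came from a burst-and-steady-state fit.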
In the case of CUUAAGGAGACCUAGUACUGGGUUACGUAA, the “pre-steady-state target cleavage rate” value stood at 0.000727 ± 0.0098.
Next, CUUAAGGAGACCUAGUACUGGGUUACGCUAA: 0.000259 ± 0.015; CUUAAGGAGAGGAACUACUGGCUUACCUAA: 0.000463 ± 0.021.
Next, CUUAAGGAGACCAUCUUCUCGGUUACCUAA: 0.00116 ± 0.005; CAUUUCCACUGGAUCUACUGGGUUACCUAA: 0.478 ± 0.058; CUUAAGGAGACCUUCUACUGGGUUACUCUAA: 0.000151 ± 0.026.
Next, GAAUUCCUCAGGUUCUACUGGGUUACCUAA: 0.539 ± 0.049.
With CUUAAGGAGACCAGCUACUGGGUUACCUAA, the “pre-steady-state target cleavage rate” value came out at 0.00323 ± 0.0053.
Next, CUUAAGGACUGGAUCUUCUGGCUUACCUAA: 0.00508 ± 0.0097; CUUAAGGAGACCUUCUACUCGGUUACCUAA: 0.00101 ± 0.0072.
With CUUAAGGAGACGAUAUACUGGGUUACCUAA, the “pre-steady-state target cleavage rate” value was 0.000831 ± 0.0066.
Regarding “CUUAAGGUCUGGAUCUACUGGGUUUGGAUA [g7:g23:cont:t1A]”, the “pre-steady-state target cleavage rate” value was 0.00105 ± 0.016.
Next, CUUAAGGAGUGGAUCAACUGGCUUACCUAA: 0.00464 ± 0.0047; CUUAAGGACUGGAGUCUACUGGGUUACCUAA: 0.0123 ± 0.019.
Consider CUUAAGGAGACCUUCUACUGGGUACCUAA, for which the “pre-steady-state target cleavage rate” value turned out to be 0.00169 ± 0.0048.
Next, CUUAAGGACUGCAUCUACUGGGUUACCUUA: 0.00303 ± 0.013; CUUAAGGAGUGGAUCUACUGGGAAUCCUAA: 0.00149 ± 0.0081.
For CUUAAGGACUGGUUCUACUCGGUUACCUAA the value was 0.0093 ± 0.014; for CUUAAGGAGACCUUCUACUGUGGUUACCUAA, 0.00218 ± 0.0036.
For CUUUUCCUCUGCAUCUACUGGGAUACCUAA the value was 0.128 ± 0.018.
Regarding CUUAAGGUGACGAUCUACUGGGUUACCUAA, the “pre-steady-state target cleavage rate” value worked out at 0.0052 ± 0.0036.
In the case of CUUAAGGAGACCUUCUACUGGGCUUACCUAA, the “pre-steady-state target cleavage rate” value stood at 0.000946 ± 0.008.
CUUAAGGAGACCAUCUACUGGGUUAGCAAA: the “pre-steady-state target cleavage rate” value came out at 0.000432 ± 0.013.
Regarding CUUAAGGAGACCUAGAUGAGGAGUUACCUAA, the “pre-steady-state target cleavage rate” value was 0.0027 ± 0.0049.
For GAAUUCCUCUGGAUCUACUGGGAUACCAAA the value was 0.192 ± 0.06; for CUUAAGGAGACCUAGAUGACGGUUACGAUA, 0.00019 ± 0.033.
For CUUAAGGAGAGGAUCUAGUGCGUUACCUAA the value was 0.00246 ± 0.0038.
CUUAAGGAGAGGAUCUACUGGUGUUACCUAA: the “pre-steady-state target cleavage rate” value is 0.000147 ± 0.039.
For CUUAAGGAGACGAUCUACUGGUUUACCUAA the value was 0.00268 ± 0.0034; for CUUAAGGAGACCUAGAACUGGGUUAUCUAA, 0.000224 ± 0.023.
Next, CUUAAGGAGACCUACUACUGCGUUACGUAA: 0.00147 ± 0.0037; “GAAUUCCUCUGGAUCUACUGGCAAUGGAUA [g10:g30:cont:t1A]”: 0.000234 ± 0.022.
Next, CUUAAGGAGACCUUCUACUGGGUUCCCUAA: 0.000938 ± 0.011.
On to CUUAAGGACUGGAUCUACUCCGUUACCUAA, for which the “pre-steady-state target cleavage rate” value worked out at 0.00337 ± 0.014.
For CUUAAGGAGAGGAUCUACUGGUUACCUAA the value was 0.00119 ± 0.01; for CUUAAGGAGACCAUUUACUGGGUUACCUAA, 0.0017 ± 0.0071.
Next, CUUAAGGAGACCAUCUACUGGGUUACCCUAA: 0.0016 ± 0.0056; CUUAAGGAGACCUAGUACUGGAGUUACCUAA: 0.00213 ± 0.0049.
Turning to CUUAAGGAGAGGAUCUAACUGGGUUACCUAA, the “pre-steady-state target cleavage rate” value was 0.000155 ± 0.039.
Next, CUUAAGGACUGGAUCAUACUGGGUUACCUAA: 0.000587 ± 0.031; CUUAAGGAGUGGAUCUACUGGGUUACCAUA: 0.0428 ± 0.015; CUUAAGGAGAGCAUCUACUGGGUAACCUAA: 0.000875 ± 0.007.
CUUAAGGAGUGGAACUACUCGGUUACCUAA: the “pre-steady-state target cleavage rate” value turned out to be 0.00272 ± 0.011.
For CUUAAGGAGACCUACUACUCGGGUUACCUAA the value was 0.000473 ± 0.011; for CUUAAGGAGACCUUCUACGGGGUUACCUAA, 0.00164 ± 0.0068; for CUUAAGGAGACCAUUCUACUGGGUUACCUAA, 0.00407 ± 0.0043.
For CUUAAGGAGAGGAUCAACUGGGAUACCUAA the value was 0.000119 ± 0.051.
For CAAUUCCUCUGGUUCUACUGGGAUACCUAA the value was 0.145 ± 0.038; for CUUAAGGAGACCUUCUCACUGGGUUACCUAA, 0.00181 ± 0.0039; for CUUAAGGAGACCUACUACUGCCUUACCUAA, 0.000973 ± 0.009.
Regarding CUUAAGGAGACGAUCUACUGGGUAACCUUA, the “pre-steady-state target cleavage rate” value was determined as 0.00026 ± 0.012.
As for CUUAAGGAGACGAUCUACUCGGUUACCAAA, the “pre-steady-state target cleavage rate” value came out at 0.00029 ± 0.028.
Next, CUAUUCCUCUGGAUCUACUGGGUUACAUAA: 0.739 ± 0.051; CUUAAGGAGACCAUCUACUGCGGUUACCUAA: 0.00337 ± 0.0045; CUUAAGGAGUCGAUCUACUGGGUUAGCUAA: 0.000207 ± 0.051.
For CUAUUCCUGUGGAUCUACUGGCUUACCUAA, the “pre-steady-state target cleavage rate” value was 0.0662 ± 0.017.
As for CAAUUCCUCUGGAUCUAACUGGGUUACCUAA, the “pre-steady-state target cleavage rate” value turned out to be 0.00269 ± 0.0055.
For CUUAAGGAGACCUUCUACUGGGUUACCUGAA the value was 0.00152 ± 0.0056; for CUUAAGGAGACGAUCUACUGCGUAACCUAA, 0.000721 ± 0.0078.
Next, CUUAAGGAGACCUAGAUCUGGGUUACGAUA: 0.000347 ± 0.014.
Regarding CUUAAGUUCUGGAUCUACUGGGUUACCUAA, the “pre-steady-state target cleavage rate” value stood at 0.274 ± 0.04.
Next, CUUAAGGAGACGAUCUACUGGGAUUACCUAA: 0.001 ± 0.008; CUUAAGGAGACGAACUACUGCGUUACCUAA: 0.000528 ± 0.007; CUUAAGGAGAGGAUCUACUGGGUAUGCUAA: 0.000134 ± 0.043.
For the sequence CUUAAGGAGACGAACUACUGGGUUACCUUA, the “pre-steady-state target cleavage rate” value stood at 0.0007 ± 0.0057.
Next, CUUAAGGAGACGAACUACUGGGUUACGUAA: 0.000439 ± 0.016.
For CUAUUCCUCUGGAUCUACUUGGGUUACCUAA the value was 0.00165 ± 0.0065.
For CUAUUCCUCUGGAUCUGACUGGGUUACCUAA, the “pre-steady-state target cleavage rate” value stood at 0.000849 ± 0.012.
Next, CUUAUCCUCUGGAUCUUCUGGGUUACGUAA: 0.45 ± 0.055.
In the case of CUUAAGGAGACCUACUACCGGGUUACCUAA, the “pre-steady-state target cleavage rate” value worked out at 0.00114 ± 0.007.
As to CUUAAGGUCUGGAACUACUGGCUUACCUAA, the “pre-steady-state target cleavage rate” value was 0.027 ± 0.022.
Next, CUUAAGGAGACCUACUAACUGGGUUACCUAA: 0.000961 ± 0.0093.
